Measured values as given in article doi:10.1101/2021.03.11.435010 (bioRxiv, 2021).

Target: RPB4 (Sus scrofa domesticus)
Assay: cryo-EM structure

B1: MED22 (protein, UniProt Q15528 1-200)
chain: MAQQRALPQSKETLLQSYNKRLKDDIKSIMDNFTEIIKTAKIEDETQVSRATQGEQDNYEMHVRAANIVRAGESLMKLVSDLKQFLILNDFPSVNEAIDQRNQQLRTLQEECDRKLITLRDEISIDLYELEEEYYSSSSSLCEANDLPLCEAYGRLDLDTDSADGLSAPLLASPEPSAGPLQVAAPAHSHAGGPGPTEHA
B1 was tested, and the binding was “binds”.

These are yes or no findings as the source states them, for the method shown. Binding can be weak; no strength is given.
